Laboratory results published in PubChem BioAssay AID1259354 (Paczesny and Yang Labs, IUPUI and University of Michigan, 2018).
The campaign covered roughly 78,000 compounds. About 1,800 (2.3%) were called active. Inconclusive results, whose numbers are uncertain, are shown with a selection of clear calls. Rule as the data show it: active = inhibition above about 30%; inconclusive = mostly about 10% to 28%; inactive = weaker than that.

By UniProt entry, the sequences of proteins in these tests, tags left out. Where a name states a change or a piece, a line headed by the entry shows the natural chain unless it says otherwise.
UniProt Q01638: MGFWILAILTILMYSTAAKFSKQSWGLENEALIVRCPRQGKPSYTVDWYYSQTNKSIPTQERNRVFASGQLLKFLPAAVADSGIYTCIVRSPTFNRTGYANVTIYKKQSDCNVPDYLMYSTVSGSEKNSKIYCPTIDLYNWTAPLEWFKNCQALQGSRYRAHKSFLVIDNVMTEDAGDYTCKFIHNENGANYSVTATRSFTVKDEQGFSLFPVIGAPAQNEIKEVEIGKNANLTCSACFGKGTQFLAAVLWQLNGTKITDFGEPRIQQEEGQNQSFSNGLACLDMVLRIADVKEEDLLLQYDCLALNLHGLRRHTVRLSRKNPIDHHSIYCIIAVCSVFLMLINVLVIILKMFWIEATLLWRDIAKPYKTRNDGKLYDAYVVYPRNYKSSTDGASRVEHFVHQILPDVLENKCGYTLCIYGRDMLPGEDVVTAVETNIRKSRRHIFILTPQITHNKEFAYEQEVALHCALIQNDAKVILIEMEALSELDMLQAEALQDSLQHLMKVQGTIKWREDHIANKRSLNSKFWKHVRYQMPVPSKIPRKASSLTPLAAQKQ

These molecules were tested against Interleukin-1 receptor-like 1 (Homo sapiens) (UniProt Q01638) (assay: blocks human ST2 binding to IL-33, primary screen, biochemical, AlphaLISA (AID 1259354)). Conditions: AlphaLISA ST2-Fc/biotin-IL-33 interaction, 1 h; at 17 µM, hits give high values.

SMILES	inhibition
COc1ccc(OC)c(NC(=O)c2cn(C)c(=O)c3cc(OC)c(OC)cc23)c1	inconclusive: 16%
COc1ccc(Oc2nc3c(c(=O)n(Cc4ccccc4)c(=O)n3C)n2C)cc1	active: 35%
c1ccc(CCc2nc(-c3cccc4cnccc34)n[nH]2)cc1	inactive
CCc1ccc(-c2csc(N)n2)cc1	inconclusive: 12%
Nc1nc(Sc2ccc(F)cc2)cc(N2CCOC(C(F)(F)F)C2)n1 (stereo unspecified)	inactive
Cc1cc(-c2ccccc2)[n+]2ccccc2n1	inconclusive: 13%
CC(=O)OC1C=C(CO)C(=O)C(OC(=O)CC(C)C)C1C(C)C (stereo unspecified)	inconclusive: 10%
O=C(CCCn1c2ccccc2c(=O)c2ccccc21)Nc1cccc(F)c1	inconclusive: 12%
CCNS(=O)(=O)c1cccc2c1C(=O)c1ccccc1C2=O	inconclusive: 28%
Cc1cc(C)cc(NC(=O)C(=O)N2CCC3(CC2)CN(C)CCN3C)c1	inconclusive: 17%
COc1cc2c(cc1OC)C(C(=O)Nc1ccc(C)c(F)c1)C(c1cccs1)N(C)C2=O (stereo unspecified)	inactive
CC/C=C(\C)CN1CCC(CNC(=O)C2(N)CCCC2)C1 (stereo unspecified)	inconclusive: 22%
COc1ccc(C(Nc2cc(C)ccn2)c2ccc3cccnc3c2O)cc1O (stereo unspecified)	inconclusive: 19%
O=C1CC[C@@H](CN(Cc2ccncc2)C(=O)c2cn(Cc3ccccc3F)nn2)N1	inconclusive: 12%
CC[C@H]1CN(C(=O)Nc2cccc(C(F)(F)F)c2)CC[C@H]1CC(=O)NCc1ccc(F)cc1	inconclusive: 23%
N#CSC(C#N)Cc1cccc([N+](=O)[O-])c1 (stereo unspecified)	active: 37%
Cc1cc(C(F)(F)F)nc(CCNC(=O)CC2COCCN2)n1 (stereo unspecified)	inactive
CCCNC(=O)C1CCC(Cn2c(=O)c3sccc3n(CC(=O)NCc3ccccc3)c2=O)CC1 (stereo unspecified)	inconclusive: 18%
Cc1ccc(C(=O)N[C@H]2C[C@@H](c3nc(-c4ccc(C)cc4)no3)N(C)C2)cc1	inconclusive: 23%
O=c1oc2ccccc2n1CCN(Cc1ccsc1)CC1CCCO1 (stereo unspecified)	inconclusive: 14%
Cc1n[nH]c(C)c1C(NC(=O)c1cc2c(s1)CCCCC2)C(=O)O (stereo unspecified)	inconclusive: 13%
O=C(O)C1C2C=CC3(CN(CCc4ccccc4)C(=O)C13)O2 (stereo unspecified)	inconclusive: 13%
COc1ccc(/C=C2\SC(c3ccc(C)cc3)=NC2=O)cc1OC	active: 30%

Entries shown so far that contain a thiophene ring, fused or not, in the order listed:
SMILES	inhibition
COc1cc2c(cc1OC)C(C(=O)Nc1ccc(C)c(F)c1)C(c1cccs1)N(C)C2=O (stereo unspecified)	inactive
CCCNC(=O)C1CCC(Cn2c(=O)c3sccc3n(CC(=O)NCc3ccccc3)c2=O)CC1 (stereo unspecified)	inconclusive: 18%
O=c1oc2ccccc2n1CCN(Cc1ccsc1)CC1CCCO1 (stereo unspecified)	inconclusive: 14%
Cc1n[nH]c(C)c1C(NC(=O)c1cc2c(s1)CCCCC2)C(=O)O (stereo unspecified)	inconclusive: 13%

Later entries.

SMILES	inhibition
CCOC(=O)C1=C(C)N=C2SCCC(=O)N2C1c1ccc(OCC)c(OC)c1 (stereo unspecified)	inactive
Cc1nn(-c2ccccn2)c(C)c1[C@@H]1C=C[C@@H](NC(=O)CCC(=O)O)C1	inconclusive: 11%
COc1ccc(/C=C/C(=O)N2CCC3(CC2)CC3C(=O)N2CCN(c3ccccn3)CC2)cc1OC (stereo unspecified)	inconclusive: 18%
Cc1ccc(S(=O)(=O)N2CCSC2c2cccc([N+](=O)[O-])c2)c(C)c1 (stereo unspecified)	inactive
CCCOc1ccc(OCCSc2nc3ncnc(N)c3[nH]2)cc1	inactive
CCOc1ccc(NS(=O)(=O)c2ccc([N+](=O)[O-])cc2)cc1	inconclusive: 10%
Cc1ccc(-n2c(CN3CCN(S(=O)(=O)c4cc(F)cc(F)c4)CC3)nc3cccnc32)cc1	inactive
COc1cccc2c1OCCCN(Cc1nc(-c3ccc(C(F)(F)F)cc3)oc1C)C2	inconclusive: 20%
N#Cc1nc(COc2ccccc2)oc1NCCN1CCOCC1	inconclusive: 16%
Cc1ccc(NC(=O)C(=O)NC2CC2)cc1C	inactive
CC12c3ccccc3C(c3ccccc31)C1C(=O)N(c3ccc(F)cc3)C(=O)C12 (stereo unspecified)	inactive
Cc1cccc2oc(-c3cc(N=Cc4cccc([N+](=O)[O-])c4O)ccc3O)nc12	inconclusive: 27%
CC(=O)N(CN1C(=O)c2cccc([N+](=O)[O-])c2C1=O)c1cc(Cl)ccc1Cl	inconclusive: 11%
CN(Cc1ccc2nsnc2c1)C(=O)c1cn(CC2CCCNC2)nn1 (stereo unspecified)	inconclusive: 13%
CCOc1ccc(C2C(C#N)=C(N)Oc3cc(N)ccc32)cc1 (stereo unspecified)	inconclusive: 10%
COc1ccccc1OCC(=O)Nc1ncc(Cc2ccccc2Cl)s1	inconclusive: 12%
COc1ccc(S(=O)(=O)NCc2cnn3ccccc23)c(OC)c1	inconclusive: 15%
O=[N+]([O-])c1cccc(-c2noc([C@@H]3C[C@@H](O)CN3CCCc3ccccc3)n2)c1	inconclusive: 20%
Cc1cccc(CN(C)Cc2ccc(-c3nc(C(F)(F)F)c(C)c(=O)[nH]3)cc2)n1	inconclusive: 19%
CC(C)c1cc(C2CCN(C(=O)Cc3c[nH]c4ccccc34)CC2)[nH]n1	inconclusive: 14%
C=CCn1c(SCC(=O)c2cc(Cl)sc2Cl)nc2ccccc2c1=O	inconclusive: 12%
O=C(c1cccnc1)N1CCC(C2CCN(Cc3cccc(F)c3F)CC2)C1 (stereo unspecified)	inactive
CCCS(=O)(=O)N1CCCC(C(=O)NCCCN2CCCC(C)C2)C1 (stereo unspecified)	inconclusive: 14%

SMILES	inhibition
COc1ccc(NC(=O)c2ccc(SC)cc2OC)cc1OC	inactive
COc1ccc(-c2ccc(C(=O)N3CCCC(Nc4ccc(OC)c(OC)c4)C3)o2)cc1 (stereo unspecified)	inconclusive: 28%
COc1ccc(C2C(=O)N(CCc3ccccc3)CC(=O)N2Cc2cccs2)cc1 (stereo unspecified)	inactive
COc1cc(-c2nc3sc4c(c3c(=O)[nH]2)CCCC4)ccc1O	inactive
COC(CN(C(C)=O)C1CCCc2c1[nH]c1ccc(C)cc21)OC (stereo unspecified)	inactive
Cc1ccc(S(=O)(=O)Cc2noc([C@@H]3C[C@@H](O)CN3CC3CCCCC3)n2)cc1	inconclusive: 12%
Cc1ccc(C2(O)CCN(Cc3ccccc3OCc3ccccc3)CC2)nc1	inconclusive: 14%
CCN1C(=O)NC(=O)/C(=C\c2cn(CCOc3ccccc3OC)c3ccccc23)C1=O	inconclusive: 18%
COc1cccc(CC(C2CCN(C(=O)c3cc(C(C)C)on3)CC2)N(C)C(=O)c2ccn(C)n2)c1 (stereo unspecified)	inactive
CCC(=O)N1c2ccccc2NC2=C(C(=O)CCC2)C1c1ccco1 (stereo unspecified)	inconclusive: 19%
Cc1ccccc1-c1noc(CNCc2cncn2CC(C)C)n1	inconclusive: 14%
CC(C)OC(=O)c1c(NC(=O)COc2ccc(F)cc2F)sc2c1CCCC2	inconclusive: 13%
Cc1c(C)c2c(c(C)c1OCc1ccccc1)C(CO)C(C)(C)O2 (stereo unspecified)	inconclusive: 25%
O=C(CN1C(=O)S/C(=C\c2ccc(Cl)cc2)C1=O)Nc1nccs1	inconclusive: 12%
O=C(CCc1ccccc1)Nc1c[nH]c(=O)[nH]c1=O	inactive
C=C(C)Cn1cnc2c(sc3nc4c(cc32)COC(C)(C)C4)c1=O	inconclusive: 20%
CC(=O)c1cccc(NS(=O)(=O)c2ccc3[nH]c(=O)sc3c2)c1	inactive
COc1ccc(OC)c(/C=C2\C(=O)N(c3ccccc3)N=C2C)c1	inconclusive: 11%
CN(C)CCNC(=O)C[C@@H]1O[C@H](CNC(=O)c2cccc(F)c2)[C@@H](O)[C@H]1O	inconclusive: 12%
CC(=O)Nc1ccc(-c2cc(-c3ccc(NC(C)=O)cc3)nc(-c3ccccc3)n2)cc1	inconclusive: 14%
CCOc1ccc(OCCCCOc2ccccc2C=O)cc1	inconclusive: 17%
CC[C@H]1CN(C(=O)Nc2cccc(C(F)(F)F)c2)CC[C@H]1CC(=O)Nc1ccccc1	inconclusive: 13%
COc1ccc(C2CC(=O)C3=C(C2)Nc2ccccc2NC3c2ccccc2C)cc1 (stereo unspecified)	inactive

3 compounds already listed, ordered by heavy-atom count, low to high.
SMILES	inhibition
COc1ccc(NC(=O)c2ccc(SC)cc2OC)cc1OC	inactive
CC[C@H]1CN(C(=O)Nc2cccc(C(F)(F)F)c2)CC[C@H]1CC(=O)Nc1ccccc1	inconclusive: 13%
CCN1C(=O)NC(=O)/C(=C\c2cn(CCOc3ccccc3OC)c3ccccc23)C1=O	inconclusive: 18%

Next part:

SMILES	inhibition
O=C1CC(Nc2ccc(N3CCOCC3)cc2)C(=O)N1c1cccc([N+](=O)[O-])c1 (stereo unspecified)	active: 47%
COc1cc(C(=O)Nc2ccc(-c3nc4ccccc4s3)cc2)cc(OC)c1OC	inconclusive: 20%
COc1ccc(S(=O)(=O)NCC2CCCN(C(=O)CCn3cccn3)C2)cc1 (stereo unspecified)	inactive
Cc1[nH]c2ccccc2c1SCCNC(=O)COc1ccccc1	inactive
Cc1ccccc1-n1c(O)c(C=Nc2ccccc2)c2ccccc2c1=O	active: 47%
COc1ccc(Cn2c(CNC(=O)c3ccccc3F)nc3cccnc32)cc1	inconclusive: 12%
CCc1ccc2occ(CC(=O)NCc3n[nH]c4c3CCC4)c2c1	inconclusive: 10%
O=C(CNS(=O)(=O)c1cccs1)N1CCN(C2CCCCC2)CC1	inactive
CCC(=O)N1CCc2cc(Br)cc(S(=O)(=O)CCC(=O)N3CCOCC3)c21	inactive
O=c1cc(Cc2nnc(SCc3cccc(F)c3)n2-c2ccccc2)[nH]c(=O)[nH]1	inconclusive: 12%
CCCC12CN3CC(C)(CN(C1)C3c1cccc(C)c1)C2=O (stereo unspecified)	inconclusive: 20%
O=[N+]([O-])C=C(c1ccccc1)c1ccccc1	active: 39%
CC(=O)N1c2ccccc2C(CSc2nnc(-c3ccccc3)o2)=CC1(C)C	inconclusive: 10%
CC(C)c1cccc(C(C)C)c1NC(=O)c1cncc(Br)c1	inconclusive: 11%
O=[N+]([O-])c1ccc(C2SCCN2S(=O)(=O)c2ccc(Cl)cc2)cc1 (stereo unspecified)	inconclusive: 12%
Cc1ccc(N2C(=O)C3N=NN(CC(=O)Nc4ccc(Br)cc4)C3C2=O)cc1 (stereo unspecified)	inactive
COc1ccc(C2Oc3nc(SC)nnc3-c3ccccc3N2C(C)=O)cc1OC (stereo unspecified)	inconclusive: 13%
CCCN1CCN(C(=O)c2sc3nc(C)nc(N4CCN(c5ccccn5)CC4)c3c2C)CC1	inactive
CCCOC(=O)C1=C(C)NC2=C(C(=O)C(C(=O)OC)C(C)C2)C1c1ccc(OCC)c(OC)c1 (stereo unspecified)	inconclusive: 12%
CC1Cc2cc(CNC(=O)c3ccc(=O)n(C)c3)ccc2O1 (stereo unspecified)	inconclusive: 14%
O=C(NCC(=O)N1CCN(c2ccccn2)CC1)C1CCCCC1	inconclusive: 16%
Cc1cc(C)c([N+](=O)[O-])cc1-c1ccc(C=C2C(=O)NC(=O)NC2=O)o1	active: 36%
